Assay results published in patent US6653340B1, “Compounds useful in the complement, coagulat and kallikrein pathways and method for their preparation” (BioCryst Pharmaceuticals, Inc., priority 1997, dated 2003).
Some of these results come from one statement about several compounds together.

By UniProt entry, the sequences of proteins in these tests, tags left out. Residues count along the entry.
UniProt P00746, 26-253: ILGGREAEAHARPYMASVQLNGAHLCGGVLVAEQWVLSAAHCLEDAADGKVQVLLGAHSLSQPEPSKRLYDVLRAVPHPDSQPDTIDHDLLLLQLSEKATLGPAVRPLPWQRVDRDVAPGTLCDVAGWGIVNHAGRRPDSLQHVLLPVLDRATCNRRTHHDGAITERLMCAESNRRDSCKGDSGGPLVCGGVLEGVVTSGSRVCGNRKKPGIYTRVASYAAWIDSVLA

Columns and labels:
[1] = target: T1, C1s (Homo sapiens, UniProt P09871); test: C1s esterolytic inhibition assay (Z-Lys-SBzl substrate); assay type: biochemical; details: relative to nafamostat, from Table 6
T1 sequence (P09871 16-688): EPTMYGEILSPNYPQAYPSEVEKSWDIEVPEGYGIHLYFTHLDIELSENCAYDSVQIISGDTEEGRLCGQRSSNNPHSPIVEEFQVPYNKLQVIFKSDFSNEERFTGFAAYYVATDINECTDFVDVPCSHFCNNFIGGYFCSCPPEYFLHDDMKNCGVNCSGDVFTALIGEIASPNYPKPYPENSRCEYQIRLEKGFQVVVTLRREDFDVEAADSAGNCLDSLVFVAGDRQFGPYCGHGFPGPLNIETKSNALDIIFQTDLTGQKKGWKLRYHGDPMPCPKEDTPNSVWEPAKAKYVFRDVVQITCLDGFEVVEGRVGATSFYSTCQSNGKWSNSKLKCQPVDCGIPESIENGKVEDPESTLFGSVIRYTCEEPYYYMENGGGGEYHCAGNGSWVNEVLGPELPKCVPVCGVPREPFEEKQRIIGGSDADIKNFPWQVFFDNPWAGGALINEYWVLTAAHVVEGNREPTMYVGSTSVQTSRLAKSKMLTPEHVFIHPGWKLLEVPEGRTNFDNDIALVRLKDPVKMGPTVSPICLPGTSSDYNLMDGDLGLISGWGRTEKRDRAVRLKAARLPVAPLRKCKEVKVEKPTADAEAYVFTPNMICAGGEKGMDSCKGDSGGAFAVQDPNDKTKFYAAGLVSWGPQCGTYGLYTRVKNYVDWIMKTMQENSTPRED
Method: (§1) The compounds to be tested were dissolved in a stock solution of DMSO at 10.0 or 100 mM. A portion of this stock solution was added to assay buffer in a final volume of 100 μL containing the enzyme of interest. Controls included buffer alone and enzyme solutions to which DMSO was added. Substrate was added to the reaction wells immediately or after incubation at room temperature. The reaction rates were measured spectrophotometrically by the generation of product at 405 nm for 200 sec. Background absorbance at 690 nm was measured and subtracted from the absorbance at 405 nm for each well.
(§2) The reaction rate for enzyme alone was compared to the rate of enzyme in the presence of inhibitor and the percent inhibition was calculated as shown below:
(§3) Percent Inhibition=[Rate without inhibitor−Rate with inhibitor)/(Rate without inhibitor)]×100
(§4) Compounds in the examples were tested a minimum of three times.
C1s esterolytic activity was assayed using a modification of the technique originally described by Kam using Z-Lys-SBzl, 1.29 mM as substrate and C1s at 3 to 13 nM.

[2] = target: Factor D (Homo sapiens, UniProt P00746); test: Factor D esterolytic inhibition assay (Z-Lys-SBzl substrate); assay type: biochemical; parameters: Factor D was purified from the urine of a patient with Fanconi syndrome by ion exchange chromatography; from tissue; host or cells: urine of a patient with Fanconi syndrome; details: relative to nafamostat, from Table 6
Text: A modification of the procedure of Volanakis (Volankis, J. E.; Barnum, S. R.; Kilpatrick, J. M. Purification and properties of human factor D. Methods in Enzymol. 1993, 223, 82-97) for purification of Factor D was utilized as described by Yamauchi (Yamauchi, Y.; Stevens, J. W.; Macon, K. J.; Volanakis, J. E. Recombinant and native zymogen forms of human complement factor D. J. Immunol. 1994, 152, 3645-3653. Briefly, Factor D was purified from the urine of a patient with Fanconi syndrome by ion exchange chromatography using BioRex 70 and two rounds of ion-exchange chromatography in a Pharmacia FPLC system using a HR5/5 Mono S column.
as §1, §2, §3, §4
An established esterolytic assay for the measurement of Factor D activity and inhibition of Factor D activity was used (Kam, C. M.; McRae, B. J.; Harper, J. W.; Niemann, M. A.; Volanakis, J. E.; Powers, J. C. Human complement proteins D, C2, and B Active site mapping with peptide thioester substrates. J Biol. Chem. 1987, 262, 3444-3451). […] Hydrolysis of this compound by Factor D liberated a free sulfhydryl group which is then reacted with 5,5′-dithiobis(2nitrobenzoic acid) producing an intense yellow color (Habeeb, A. F. S. A. Reaction of protein sulfhydryl groups with Ellman's Reagent. Methods in Enzymol. 1976, 25, 457-464.). The assays were performed in 96 well microtiter plates and rates of hydrolysis were monitored at 405 nm in a Anthos Labtec HT2 plate reader. Hydrolysis rates were reported as change in mOD/min. The assay was conducted in 100 mM HEPES, 500 mM NaCl, pH 7.5 containing 10% DMSO in a final volume of 200 μL per well.

Compound | potency on C1s compared to nafamostat [1] | potency on Factor D compared to nafamostat [2]
N=C(N)c1cc2ccc(OC(=O)c3ccco3)cc2s1 [Example 8] | more than one order of magnitude more potent | more than one order of magnitude more potent
N=C(N)c1cc2cc(OC(=O)c3ccsc3)ccc2o1 [Example 6] | more than one order of magnitude more potent | more than one order of magnitude more potent
N=C(N)c1cc2ccc(OC(=O)c3ccoc3)cc2s1 [Example 10] | more than one order of magnitude more potent | more than one order of magnitude more potent
N=C(N)c1cc2ccc(OC(=O)c3cccs3)cc2s1 [Example 9] | more than one order of magnitude more potent | more than one order of magnitude more potent
N=C(N)c1cc2ccc(OC(=O)c3ccccc3)cc2s1 [Example 7] | more than one order of magnitude more potent | more than one order of magnitude more potent
